# Experimental data: patent US20250282828A1, “PEPTIDES FOR THE TREATMENT OF RESPIRATORY INFECTIONS OF VIRAL ORIGIN” (CENTRO DE INGENIERÍA GENÉTICA Y BIOTECNOLOGÍA, priority 2020, published 2025)
# Read-outs that look alike come from different tables or passages of the source. At least one read-out could not be matched to a standard name with certainty.
# System: SARS-CoV-2
# Conditions: VeroE6
# [1] = read-out: IC50 Compound + peptide SEQ ID NO: 1, in presence of peptide SEQ ID NO: 1 at 10 μM
# [2] = read-out: IC50 Compound + peptide SEQ ID NO: 2, in presence of peptide SEQ ID NO: 2
# [3] = read-out: IC50 Compound + peptide SEQ ID NO: 3, in presence of peptide SEQ ID NO: 3
Compound,IC50 [1] [µM],IC50 [2] [µM],IC50 [3] [µM]
NC(=O)c1nc(F)c[nH]c1=O [Favipiravir],12.5,9.6,10.1
NC(=O)c1ncn([C@@H]2O[C@H](CO)[C@@H](O)[C@H]2O)n1 [Ribavirin],7.4,6.9,7
